Experimental data published in patent US11464733B2, “Enema for rectal application” (Dr. Falk Pharma GmbH, priority 2016, dated 2022).
At least one compound was matched to its structure with a doubt left.

Assays:
[1] = tested on: patient group of the ulcerative colitis; conditions: 2 mg twice a day for 2 weeks, then 2 mg once a day for 4 weeks; versus placebo; cited from earlier work
[2] = tested on: patients with active ulcerative colitis; assay: Placebo-controlled double-blind trial: mucosal endoscopy, MMDAI endoscopic finding score; assay type: in vivo, human
Experimental: Placebo-controlled randomized double-blind multicenter collaborative parallel group comparison test
Superiority of the budesonide compared with placebo for mucosal healing as the primary endpoint are investigated for patients with active ulcerative colitis when budesonide 2 mg is rectally administered twice a day for 6 weeks by a double-blind comparative study with placebo as a control, and the safety thereof was investigated.
Furthermore, the efficacy and safety of administering were investigated, to patients with inflammatory bowel disease who have been administered 1.5 to 2.5 mg of budesonide twice a day for 6 weeks and shown signs of healing but no mucous membrane healing, 1.5 to 2.5 mg of budesonide twice a day for an additional 6 weeks (for a total of 12 weeks) (clinical trial number: Japic CTI—142704).
For the trial, an aerosol with fixed dose injection type for rectal injection (rectal foaming agent) is used as a test drug, in which 25 mL (1.35 g) of white creamy foam containing 2 mg of budesonide is released by one injection. As a remission induction therapeutic agent of ulcerative colitis in active phase where the lesion is confined to the rectum and sigmoid colon, the aerosol for rectal injection is approved in Europe at a dosage and dose of budesonide 2 mg once a day (trade name: Budenofalk 2 mg/dose rectal foam, manufactured by Dr. Falk Pharma GmbH).
The subjects are ulcerative colitis patients in active phase, and are divided into a group administered the test drug twice a day (hereafter, the budesonide-administered group), and a group administered the control drug (hereinafter, the placebo group).
The test drug or control drug is rectally administered twice a day (once in the morning and once in the evening), after defecation, if possible. The number of injections per dose is one, the administration period is 6 weeks, if no mucous membrane healing occurred (an endoscope view score of 0 points), an administration period of 12 weeks can be used, and the drug is administered until the evening before the evaluation. […]

[3] = tested on: ulcerative colitis patients; conditions: 2 mg twice a day for 6 weeks compared with 2 mg once a day for 6 weeks; cited from earlier work

In the case of `CCCC1O[C@@H]2C[C@H]3[C@@H]4CCC5=CC(=O)C=C[C@]5(C)[C@H]4[C@@H](O)C[C@]3(C)[C@]2(C(=O)CO)O1` (mixture of isomers) [Budesonide, (+)-[(RS)-16α,17α-Butylidenedioxy-11β,21-dihydroxy-1,4-pregnadiene-3,20-dione]], the “Effect of improving modified Mayo Disease Activity Index (MMDAI) to 0 or 1” value [1] is given as “significantly higher than a placebo administered group”, the “Size of the decrease of the endoscopic finding score (improvement of the mucous membrane)” value ([2]; 6th week or 12th week, versus placebo group) is given as “large compared with that of the placebo group” and the “Therapeutic effect of additional administration twice a day for a further 6 weeks” value ([2]; patients with some signs of healing but no mucous membrane healing after 6 weeks) is given as “significantly improved mucous membrane healing”. For the same compound, the “Patient's percentage of mucosal healing” value ([2]; twice a day for additional 6 weeks after 6 weeks, endoscope view score 1, versus placebo) was “significantly higher as compared with the placebo group” and the “Healing effect of large intestine mucosa” value [3] was “highly intentional”.
